Measurements as given in publication PMC11596310.
These are yes or no findings as the source states them, for the method shown. Binding seen in cells or lysates may run through a third protein. Some binding calls cover weakened binding; strength is not graded here.

Amino acid sequences for entries named in this document (tags omitted).
UniProt Q15717: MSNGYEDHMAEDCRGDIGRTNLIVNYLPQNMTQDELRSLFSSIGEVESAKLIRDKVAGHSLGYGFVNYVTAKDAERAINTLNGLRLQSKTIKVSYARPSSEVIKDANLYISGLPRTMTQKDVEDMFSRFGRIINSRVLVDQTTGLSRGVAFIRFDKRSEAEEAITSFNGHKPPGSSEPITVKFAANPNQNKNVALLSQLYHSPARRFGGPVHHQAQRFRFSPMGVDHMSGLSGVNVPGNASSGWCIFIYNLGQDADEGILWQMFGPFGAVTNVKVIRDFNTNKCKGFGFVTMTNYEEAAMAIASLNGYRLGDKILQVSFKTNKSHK

Target: T1, YTHDF2 (human (endogenous in HeLa)) (UniProt Q9Y5A9)
T1 sequence: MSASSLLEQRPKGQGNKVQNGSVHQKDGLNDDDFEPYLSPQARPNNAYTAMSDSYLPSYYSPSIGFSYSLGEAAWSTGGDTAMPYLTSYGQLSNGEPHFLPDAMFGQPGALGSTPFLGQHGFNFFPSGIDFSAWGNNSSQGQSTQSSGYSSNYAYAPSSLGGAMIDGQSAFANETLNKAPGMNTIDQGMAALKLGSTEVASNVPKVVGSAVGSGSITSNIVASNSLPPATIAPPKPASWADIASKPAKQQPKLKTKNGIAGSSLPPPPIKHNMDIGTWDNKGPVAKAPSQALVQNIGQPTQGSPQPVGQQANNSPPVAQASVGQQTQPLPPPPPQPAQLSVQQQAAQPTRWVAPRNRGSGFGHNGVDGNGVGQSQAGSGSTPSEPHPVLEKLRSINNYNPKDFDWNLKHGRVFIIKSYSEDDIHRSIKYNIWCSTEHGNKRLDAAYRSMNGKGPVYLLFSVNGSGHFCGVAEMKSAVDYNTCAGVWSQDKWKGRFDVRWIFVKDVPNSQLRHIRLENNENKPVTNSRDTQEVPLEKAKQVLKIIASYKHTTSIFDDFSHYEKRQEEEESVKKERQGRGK
Experiment: co-IP; HeLa cells infected with CVB3 at MOI 10 for 3 h; lysis buffer 25 mM Tris HCl, 150 mM NaCl, 1 mM EDTA, 1% NP40, 5% glycerol, pH 7.4; precleared lysate precipitated overnight with anti-YTHDF2 on agarose beads and blotted for HuR, and conversely with anti-HuR and blotted for YTHDF2; IgG as control

binding: binds
Substance: human antigen R (HuR) (from UniProt Q15717 1-326)
